Data on 4 molecules can be found in paper doi:10.1101/2025.10.22.676442.

By UniProt entry, the sequences of proteins in these tests, tags left out.
UniProt P03496: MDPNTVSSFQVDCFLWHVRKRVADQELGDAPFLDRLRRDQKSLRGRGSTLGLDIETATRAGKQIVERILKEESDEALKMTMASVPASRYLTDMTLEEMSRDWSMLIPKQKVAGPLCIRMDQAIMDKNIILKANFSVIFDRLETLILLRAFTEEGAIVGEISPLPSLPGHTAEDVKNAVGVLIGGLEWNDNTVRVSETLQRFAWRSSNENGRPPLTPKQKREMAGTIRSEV
UniProt P03431: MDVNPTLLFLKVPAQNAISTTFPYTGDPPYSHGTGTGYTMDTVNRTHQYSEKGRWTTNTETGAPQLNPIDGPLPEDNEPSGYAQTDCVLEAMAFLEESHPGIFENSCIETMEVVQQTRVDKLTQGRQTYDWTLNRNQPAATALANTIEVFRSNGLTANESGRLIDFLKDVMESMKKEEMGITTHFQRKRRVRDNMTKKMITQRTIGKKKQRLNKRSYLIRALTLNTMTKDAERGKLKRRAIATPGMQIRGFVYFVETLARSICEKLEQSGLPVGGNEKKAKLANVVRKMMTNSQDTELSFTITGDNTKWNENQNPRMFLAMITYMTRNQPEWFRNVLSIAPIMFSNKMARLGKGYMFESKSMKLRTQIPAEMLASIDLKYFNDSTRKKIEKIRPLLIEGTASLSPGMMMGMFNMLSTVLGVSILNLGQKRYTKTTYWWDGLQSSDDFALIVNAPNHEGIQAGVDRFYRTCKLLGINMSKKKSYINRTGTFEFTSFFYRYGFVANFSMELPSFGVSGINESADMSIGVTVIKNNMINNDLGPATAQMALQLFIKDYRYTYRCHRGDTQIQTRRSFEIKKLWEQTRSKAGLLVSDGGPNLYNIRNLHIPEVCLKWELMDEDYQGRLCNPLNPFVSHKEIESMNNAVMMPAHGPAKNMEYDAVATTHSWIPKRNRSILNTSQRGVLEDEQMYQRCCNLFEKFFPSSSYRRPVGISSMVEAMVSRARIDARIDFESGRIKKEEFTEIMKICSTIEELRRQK

No constants are given. Whether binding was seen depends on the method and setting. In cells and extracts the contact can be indirect. Some entries that bind do so weakly or less than the wild type. Sequences can lack the tags named with a protein.

Assay in all cases: co-IP
The target of test [1] is T1, Flag-tagged UNC93B1 (in A549 cells) (UniProt Q9H1C4).
T1 sequence: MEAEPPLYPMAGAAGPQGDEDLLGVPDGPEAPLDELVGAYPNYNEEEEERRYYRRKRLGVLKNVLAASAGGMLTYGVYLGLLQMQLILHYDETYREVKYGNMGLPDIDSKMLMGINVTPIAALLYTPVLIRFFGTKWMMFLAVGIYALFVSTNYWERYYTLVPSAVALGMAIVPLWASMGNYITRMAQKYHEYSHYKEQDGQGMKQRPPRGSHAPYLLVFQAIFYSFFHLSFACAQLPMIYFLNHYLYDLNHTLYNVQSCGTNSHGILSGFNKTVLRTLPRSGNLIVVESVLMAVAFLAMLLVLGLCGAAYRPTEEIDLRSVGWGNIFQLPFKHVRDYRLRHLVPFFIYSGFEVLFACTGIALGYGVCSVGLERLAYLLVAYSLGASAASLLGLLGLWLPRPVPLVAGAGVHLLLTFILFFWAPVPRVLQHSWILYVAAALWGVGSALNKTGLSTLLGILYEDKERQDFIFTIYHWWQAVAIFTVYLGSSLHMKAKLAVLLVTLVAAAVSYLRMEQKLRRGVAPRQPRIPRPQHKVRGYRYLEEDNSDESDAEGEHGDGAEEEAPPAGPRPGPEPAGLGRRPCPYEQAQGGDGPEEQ

For test [2], the target named is Flag-tagged influenza virus NS1 (in A549 cells) (influenza A virus (strain not stated)) (UniProt P03496).
Test [3] deals with Flag-tagged influenza virus PB1 (in A549 cells) (influenza A virus (strain not stated)) (UniProt P03431).
Test [4] addresses Flag-tagged influenza virus NS1 (in HEK293T cells) (influenza A virus (strain not stated)) (UniProt P03496).
Test [5] deals with Flag-tagged influenza virus PB1 (in HEK293T cells) (influenza A virus (strain not stated)) (UniProt P03431).

B1: TLR7 (A549 cells) (receptor, UniProt Q9NYK1 27-1049)
chain: ARWFPKTLPCDVTLDVPKNHVIVDCTDKHLTEIPGGIPTNTTNLTLTINHIPDISPASFHRLDHLVEIDFRCNCVPIPLGSKNNMCIKRLQIKPRSFSGLTYLKSLYLDGNQLLEIPQGLPPSLQLLSLEANNIFSIRKENLTELANIEILYLGQNCYYRNPCYVSYSIEKDAFLNLTKLKVLSLKDNNVTAVPTVLPSTLTELYLYNNMIAKIQEDDFNNLNQLQILDLSGNCPRCYNAPFPCAPCKNNSPLQIPVNAFDALTELKVLRLHSNSLQHVPPRWFKNINKLQELDLSQNFLAKEIGDAKFLHFLPSLIQLDLSFNFELQVYRASMNLSQAFSSLKSLKILRIRGYVFKELKSFNLSPLHNLQNLEVLDLGTNFIKIANLSMFKQFKRLKVIDLSVNKISPSGDSSEVGFCSNARTSVESYEPQVLEQLHYFRYDKYARSCRFKNKEASFMSVNESCYKYGQTLDLSKNSIFFVKSSDFQHLSFLKCLNLSGNLISQTLNGSEFQPLAELRYLDFSNNRLDLLHSTAFEELHKLEVLDISSNSHYFQSEGITHMLNFTKNLKVLQKLMMNDNDISSSTSRTMESESLRTLEFRGNHLDVLWREGDNRYLQLFKNLLKLEELDISKNSLSFLPSGVFDGMPPNLKNLSLAKNGLKSFSWKKLQCLKNLETLDLSHNQLTTVPERLSNCSRSLKNLILKNNQIRSLTKYFLQDAFQLRYLDLSSNKIQMIQKTSFPENVLNNLKMLLLHHNRFLCTCDAVWFVWWVNHTEVTIPYLATDVTCVGPGAHKGQSVISLDLYTCELDLTNLILFSLSISVSLFLMVMMTASHLYFWDVWYIYHFCKAKIKGYQRLISPDCCYDAFIVYDTKDPAVTEWVLAELVAKLEDPREKHFNLCLEERDWLPGQPVLENLSQSIQLSKKTVFVMTDKYAKTENFKIAFYLSHQRLMDEKVDVIILIFLEKPFQKSKFLQLRKRLCGSSVLEWPTNPQAHPYFWQCLKNALATDNHVAYSQVFKETV
In the case of B1, the binding entry in test [1] is “binds”.

B2: PANK4 (endogenous, A549 cells) (protein, UniProt Q9NVE7 1-773)
chain: MAECGASGSGSSGDSLDKSITLPPDEIFRNLENAKRFAIDIGGSLTKLAYYSTVQHKVAKVRSFDHSGKDTEREHEPPYEISVQEEITARLHFIKFENTYIEACLDFIKDHLVNTETKVIQATGGGAYKFKDLIEEKLRLKVDKEDVMTCLIKGCNFVLKNIPHEAFVYQKDSDPEFRFQTNHPHIFPYLLVNIGSGVSIVKVETEDRFEWVGGSSIGGGTFWGLGALLTKTKKFDELLHLASRGQHSNVDMLVRDVYGGAHQTLGLSGNLIASSFGKSATADQEFSKEDMAKSLLHMISNDIGQLACLHARLHSLDRVYFGGFFIRGHPVTMRTITYSINFFSKGEVQALFLRHEGYLGAIGAFLKGAEQDNPNQYSWGENYAGSSGLMSASPELGPAQRARSGTFDLLEMDRLERPLVDLPLLLDPPSYVPDTVDLTDDALARKYWLTCFEEALDGVVKRAVASQPDSVDAAERAEKFRQKYWNKLQTLRQQPFAYGTLTVRSLLDTREHCLNEFNFPDPYSKVKQRENGVALRCFPGVVRSLDALGWEERQLALVKGLLAGNVFDWGAKAVSAVLESDPYFGFEEAKRKLQERPWLVDSYSEWLQRLKGPPHKCALIFADNSGIDIILGVFPFVRELLLRGTEVILACNSGPALNDVTHSESLIVAERIAGMDPVVHSALQEERLLLVQTGSSSPCLDLSRLDKGLAALVRERGADLVVIEGMGRAVHTNYHAALRCESLKLAVIKNAWLAERLGGRLFSVIFKYEVPAE
For the molecule B2, the binding result in test [1] is “binds”.

B3: Myc-tagged PANK4 (in A549 cells) (protein, UniProt Q9NVE7 1-773)
chain: MAECGASGSGSSGDSLDKSITLPPDEIFRNLENAKRFAIDIGGSLTKLAYYSTVQHKVAKVRSFDHSGKDTEREHEPPYEISVQEEITARLHFIKFENTYIEACLDFIKDHLVNTETKVIQATGGGAYKFKDLIEEKLRLKVDKEDVMTCLIKGCNFVLKNIPHEAFVYQKDSDPEFRFQTNHPHIFPYLLVNIGSGVSIVKVETEDRFEWVGGSSIGGGTFWGLGALLTKTKKFDELLHLASRGQHSNVDMLVRDVYGGAHQTLGLSGNLIASSFGKSATADQEFSKEDMAKSLLHMISNDIGQLACLHARLHSLDRVYFGGFFIRGHPVTMRTITYSINFFSKGEVQALFLRHEGYLGAIGAFLKGAEQDNPNQYSWGENYAGSSGLMSASPELGPAQRARSGTFDLLEMDRLERPLVDLPLLLDPPSYVPDTVDLTDDALARKYWLTCFEEALDGVVKRAVASQPDSVDAAERAEKFRQKYWNKLQTLRQQPFAYGTLTVRSLLDTREHCLNEFNFPDPYSKVKQRENGVALRCFPGVVRSLDALGWEERQLALVKGLLAGNVFDWGAKAVSAVLESDPYFGFEEAKRKLQERPWLVDSYSEWLQRLKGPPHKCALIFADNSGIDIILGVFPFVRELLLRGTEVILACNSGPALNDVTHSESLIVAERIAGMDPVVHSALQEERLLLVQTGSSSPCLDLSRLDKGLAALVRERGADLVVIEGMGRAVHTNYHAALRCESLKLAVIKNAWLAERLGGRLFSVIFKYEVPAE
As for B3, the binding entry in test [2] and in test [3] was “binds” throughout.

B4: MYC-tagged full-length PANK4 (in HEK293T cells) (protein, UniProt Q9NVE7 1-773)
chain: MAECGASGSGSSGDSLDKSITLPPDEIFRNLENAKRFAIDIGGSLTKLAYYSTVQHKVAKVRSFDHSGKDTEREHEPPYEISVQEEITARLHFIKFENTYIEACLDFIKDHLVNTETKVIQATGGGAYKFKDLIEEKLRLKVDKEDVMTCLIKGCNFVLKNIPHEAFVYQKDSDPEFRFQTNHPHIFPYLLVNIGSGVSIVKVETEDRFEWVGGSSIGGGTFWGLGALLTKTKKFDELLHLASRGQHSNVDMLVRDVYGGAHQTLGLSGNLIASSFGKSATADQEFSKEDMAKSLLHMISNDIGQLACLHARLHSLDRVYFGGFFIRGHPVTMRTITYSINFFSKGEVQALFLRHEGYLGAIGAFLKGAEQDNPNQYSWGENYAGSSGLMSASPELGPAQRARSGTFDLLEMDRLERPLVDLPLLLDPPSYVPDTVDLTDDALARKYWLTCFEEALDGVVKRAVASQPDSVDAAERAEKFRQKYWNKLQTLRQQPFAYGTLTVRSLLDTREHCLNEFNFPDPYSKVKQRENGVALRCFPGVVRSLDALGWEERQLALVKGLLAGNVFDWGAKAVSAVLESDPYFGFEEAKRKLQERPWLVDSYSEWLQRLKGPPHKCALIFADNSGIDIILGVFPFVRELLLRGTEVILACNSGPALNDVTHSESLIVAERIAGMDPVVHSALQEERLLLVQTGSSSPCLDLSRLDKGLAALVRERGADLVVIEGMGRAVHTNYHAALRCESLKLAVIKNAWLAERLGGRLFSVIFKYEVPAE
In the case of B4, the binding entry in test [4] and in test [5] was “binds” in each case.
